# Library screen at single concentrations

From ChEMBL document CHEMBL3988442, “University of Dundee, Small-Polar-MMV Screening Library” (2021).

Mtb cholesterol medium: 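Growth of Mycobacterium tuberculosis over 4 days (cholesterol / DPPC medium with tyloxapol); the read-out is not stated. Concentration: 50 µM. Higher reads as more growth inhibition (inferred: compounds with an IC50 in retests scored well above the rest). Of about 69,000 compounds tested this way, about 370 (0.54%) reached 50% or more in at least one test.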
Mtb glucose medium: 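Phenotypic screen: M. tuberculosis growth, glucose 7H9 medium, 3 days; the read-out is not stated. Compounds at 50 µM. The record gives no direction; compounds that gave an IC50 in retests scored well above the rest, so higher reads as more growth inhibition. About 69,000 compounds were tested under these conditions; 1.1% (about 760) showed 50% or more at least once.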

The filed quantity is “Percent Effect” (%). The controls that fix the scale are not given in the record; negative values are as filed. This is an unselected part of the compounds tested. Two or more numbers in one place are separate tests of the same structure; such repeats can differ widely.

- CC(C)C(C(=O)N1CCN(Cc2ccccn2)CC1)n1cncn1 (centres unmarked) | Mtb cholesterol medium: 3.568%; Mtb glucose medium: -22.18%
- Cc1c(NCc2ccccc2C#N)cccc1-n1cnnn1 | Mtb cholesterol medium: -10.65%; Mtb glucose medium: -11.37%
- CCCN1CCC(CNC(=O)N2CCCC2c2c(C)n[nH]c2C)CC1 (centres unmarked) | Mtb cholesterol medium: 14.06%; Mtb glucose medium: 3.468%
- CNC(=O)CN1CCC(NC(=O)Cn2cc(C)c3ccccc32)CC1 | Mtb cholesterol medium: -25.09%; Mtb glucose medium: 2.962%
- CSc1ccc(-c2nc(CN3C[C@@H](C)NC[C@@H]3C)c(C)o2)cc1 | Mtb cholesterol medium: 10.57%; Mtb glucose medium: 44%
- Cc1ccccc1C(=O)N1CCOC2(CNCCOC2)C1 (centres unmarked) | Mtb cholesterol medium: -8.947%; Mtb glucose medium: -34.84%
- Cc1nc(C(C)C)sc1C(=O)NCCNc1ncccc1C#N | Mtb cholesterol medium: -40.3%; Mtb glucose medium: 3.237%
- COCc1nc(CN2CCC3(CCCO3)CCC2=O)no1 (centres unmarked) | Mtb cholesterol medium: 2.628%; Mtb glucose medium: 17.71%
- COc1cccc2c1OCC(C(=O)NCc1c(C)noc1C)C2 (centres unmarked) | Mtb cholesterol medium: -7.858%; Mtb glucose medium: 1.72%
- Cn1ccc(C(=O)NC2CCC23CCN(C(=O)c2cnccn2)CC3)c1 (centres unmarked) | Mtb cholesterol medium: -15.19%; Mtb glucose medium: 6.688%
- COc1ccc(N2CCC(NCc3csc(C(C)C)n3)CC2)cc1 | Mtb cholesterol medium: -3.075%; Mtb glucose medium: 0.148%
- O=C(O)C(F)(F)F.[H][C@@]12CCN(Cc3c(C)noc3C)C[C@]1(C(=O)NCCOC)CCO2 | Mtb cholesterol medium: -21.19%; Mtb glucose medium: -28.9%
- Nc1nc2c(c3c1C(=O)NC3=O)CCC2 | Mtb cholesterol medium: -23.63%; Mtb glucose medium: -10.88%
- Cn1ccc(CN2CCC(NC(=O)C3CCCCC3)CC2)cc1=O | Mtb cholesterol medium: -11.86%; Mtb glucose medium: -9.709%
- Cc1ccc(N2CCN(C(=O)[C@@H]3CCC(=O)N3)CC2=O)cc1 | Mtb cholesterol medium: -11.84%; Mtb glucose medium: 4.186%
- CC(C)n1nc(CN(C)C)c2c1CN(CC1CC1)CC2.O=C(O)C(F)(F)F.O=C(O)C(F)(F)F | Mtb cholesterol medium: 0.7327%; Mtb glucose medium: -19.23% & -3.282%
- O=C(O)C(F)(F)F.O=C(c1cnccn1)N1CCCC2(COCCN(CC3CC3)C2)C1 (centres unmarked) | Mtb cholesterol medium: -16.77%; Mtb glucose medium: -11.18%
- O=C(NCCc1c[nH]cn1)c1ccc(S(=O)(=O)NC2CCOC2)cc1 (centres unmarked) | Mtb cholesterol medium: -18.65%; Mtb glucose medium: -8.609%
- CC(C)c1ncc(CN2C[C@@H](CN3CCCCC3)[C@@H](CO)C2)cn1 | Mtb cholesterol medium: -26.18%; Mtb glucose medium: -22.37%
- CCS(=O)(=O)CCNC(=O)c1cc2n(n1)CCCO2 | Mtb cholesterol medium: -10.62%; Mtb glucose medium: -19.65%
- COc1cc(C)c(C(C)NC(=O)NCCCn2cncn2)cc1OC (centres unmarked) | Mtb cholesterol medium: -10.21%; Mtb glucose medium: 20.47%
- O=C(CC1=CCCCC1)Nc1ncn(CC(=O)N2CCCCCC2)n1 | Mtb cholesterol medium: -5.522%; Mtb glucose medium: -8.964%
- CCNc1ncc(C(=O)NCCc2ccc(C)c(C)c2)cn1 | Mtb cholesterol medium: 12.54%; Mtb glucose medium: 19.08% & 14.97%
- CCC(NS(=O)(=O)c1ccc(C(=O)NC2CC2)cc1)c1ccnn1C (centres unmarked) | Mtb cholesterol medium: 1.048%; Mtb glucose medium: 9.035% & 12.17%
- CC(C)c1nnc2n1CCN(C(=O)c1ccc3c(c1)COC3)C2 | Mtb cholesterol medium: -21.19%; Mtb glucose medium: -11.98%
- Cc1cnn(CC2CCCN2C(=O)CCc2ccco2)c1 (centres unmarked) | Mtb cholesterol medium: 24.76%; Mtb glucose medium: 34.13%
- Cc1cnc(N2CCC3(CC2)CC3C(=O)NCC2CC2)nc1 (centres unmarked) | Mtb cholesterol medium: 4.777%; Mtb glucose medium: 25.62%
- Cc1ccccc1CN(C)C(=O)c1ccoc1 | Mtb cholesterol medium: -5.864%; Mtb glucose medium: -28.26%
- CNC(=O)[C@@H](C)NC(=O)c1cc(-c2ccc(F)cc2)c(C)s1 | Mtb cholesterol medium: -5.599%; Mtb glucose medium: 8.572%
- Cc1cccn2cc(C(=O)N3CCCN(CC4CC4)C(C(C)C)C3)nc12 (centres unmarked) | Mtb cholesterol medium: 24.3%; Mtb glucose medium: -5.882%
- Cc1cc(C)n(-c2ccc(CNCc3ccc(C)o3)cn2)n1 | Mtb cholesterol medium: 20.75%; Mtb glucose medium: 5.282%
- CC(C)COC1CC2(CCN(Cc3nccn3C)CC2)C1.O=C(O)C(F)(F)F | Mtb cholesterol medium: -0.5157%; Mtb glucose medium: 15.86% & -0.1052%
- Cc1c[nH]c(CN(C)C(=O)CCn2cnc3ccccc32)n1 | Mtb cholesterol medium: 12.18%; Mtb glucose medium: 15.06%
- CC(C)c1nnc2n1CC(CNCc1ccc3c(c1)OCCO3)CC2 (centres unmarked) | Mtb cholesterol medium: -10.47%; Mtb glucose medium: 17.48%
- Cc1ccc(CC(=O)N2CCOC(c3nc(C)n[nH]3)C2)cn1 (centres unmarked) | Mtb cholesterol medium: -1.787%; Mtb glucose medium: 13.28% & -4.262%
- COCCN1CCN(Cc2c(C3CCNCC3)[nH]c3ncccc23)CC1.Cl | Mtb cholesterol medium: -9.705%; Mtb glucose medium: -1.576%
- CC1(C)OC(=O)N(CCCOc2ccc(F)cc2)C1=O | Mtb cholesterol medium: 11.11%; Mtb glucose medium: 17.1%
- Cc1nn(C)cc1-c1ccnc(N(C)Cc2ccoc2)n1 | Mtb cholesterol medium: 11.42%; Mtb glucose medium: -2.777%
- O=C(O)c1ccnc2c(Br)cccc12 | Mtb cholesterol medium: 28.28%; Mtb glucose medium: 3.547%
- O=C(Cn1cc(I)cn1)NCC1CCC1 | Mtb cholesterol medium: 32.82%; Mtb glucose medium: 27.19%
- CN(C)C(C(=O)N1CCC(CCO)CC1)c1ccccc1F (centres unmarked) | Mtb cholesterol medium: -37.66%; Mtb glucose medium: -51.11%
- CN1CCN(C(=O)c2cnsn2)c2ccc(F)cc21 | Mtb cholesterol medium: 12.92%; Mtb glucose medium: 9.473%
- O=S(=O)(CCN1CCCC1Cn1cccn1)c1ccccc1 (centres unmarked) | Mtb cholesterol medium: -1.876%; Mtb glucose medium: -3.724%
- O=C(O)C(F)(F)F.[H][C@@]12CCN(C(=O)c3cnoc3C)[C@@]1([H])CC(=O)N2Cc1cccnc1 | Mtb cholesterol medium: -13.96%; Mtb glucose medium: -7.856%